Results deposited as PubChem BioAssay AID743121 (NCATS, 2013).
The deposit covers about 26,000 reagents; shown is a part drawn at random. 167 of all reagents (0.63%) were called active. 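Calls are per gene from RSA p-values that are not deposited; an individual active-marked siRNA can sensitise only weakly.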 The numbers tell different reagents against one gene apart.

- Test: 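Partners whose loss is lethal together with topoisomerase I blockade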 (primary screen)
- Cells: MDA-MB-231 cells, a human breast cancer line
- Reagents: single siRNA against human genes, 20 nM siRNA (0.8 pmol per well)
- Duration: 120 h (drug added 48 h after transfection, read 72 h later)
- Challenge: camptothecin 20 nM (about EC30) for 72 h; vehicle 0.1% DMSO in parallel plates
- Read-out: 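CellTiter-Glo ATP signal, scaled to control siRNA as percent viability; sensitisation given as log2 of untreated divided by camptothecin-treated viability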
- Scale: log2 vehicle/camptothecin viability: higher = stronger sensitisation to camptothecin; viability with camptothecin and viability without drug: higher = more viable cells
- Call rule: 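Active genes have an RSA gene-level p-value below 0.001, computed from the ratios of their separate siRNAs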

The opening 10 records as a preview:
no.	target gene	reagent no.	log2 vehicle/camptothecin viability	viability with camptothecin (% of control)	viability without drug (% of control)	call
1	TLCD3A (TLC domain containing 3A)	1	-0.288	85.6	70.1	inactive
2	TLCD3A (TLC domain containing 3A)	2	0.0129	28	28.3	inactive
3	TLCD3A (TLC domain containing 3A)	3	-0.126	82.9	75.9	inactive
4	TLCD3A (TLC domain containing 3A)	4	-0.107	113	105	inactive
5	CD48 (CD48 molecule)	1	-0.233	76.9	65.5	inactive
6	CD48 (CD48 molecule)	2	-0.184	35.8	31.6	inactive
7	CD48 (CD48 molecule)	3	0.0122	36.8	37.2	inactive
8	CD48 (CD48 molecule)	4	-0.414	67.1	50.3	inactive
9	PTBP1 (polypyrimidine tract binding protein 1)	1	-0.345	78.7	61.9	inactive
10	PTBP1 (polypyrimidine tract binding protein 1)	2	-0.296	95.8	78	inactive

The list itself, repeating the preview:
no.	target gene	reagent no.	log2 vehicle/camptothecin viability	viability with camptothecin (% of control)	viability without drug (% of control)	call
1	TLCD3A (TLC domain containing 3A)	1	-0.288	85.6	70.1	inactive
2	TLCD3A (TLC domain containing 3A)	2	0.0129	28	28.3	inactive
3	TLCD3A (TLC domain containing 3A)	3	-0.126	82.9	75.9	inactive
4	TLCD3A (TLC domain containing 3A)	4	-0.107	113	105	inactive
5	CD48 (CD48 molecule)	1	-0.233	76.9	65.5	inactive
6	CD48 (CD48 molecule)	2	-0.184	35.8	31.6	inactive
7	CD48 (CD48 molecule)	3	0.0122	36.8	37.2	inactive
8	CD48 (CD48 molecule)	4	-0.414	67.1	50.3	inactive
9	PTBP1 (polypyrimidine tract binding protein 1)	1	-0.345	78.7	61.9	inactive
10	PTBP1 (polypyrimidine tract binding protein 1)	2	-0.296	95.8	78	inactive
11	PTBP1 (polypyrimidine tract binding protein 1)	3	0.15	35.7	39.6	inactive
12	PTBP1 (polypyrimidine tract binding protein 1)	4	-0.36	22.4	17.5	inactive
13	COMTD1 (catechol-O-methyltransferase domain containing 1)	1	-0.232	75.2	64	inactive
14	COMTD1 (catechol-O-methyltransferase domain containing 1)	2	-0.386	79.3	60.7	inactive
15	COMTD1 (catechol-O-methyltransferase domain containing 1)	3	-0.0909	47	44.2	inactive
16	COMTD1 (catechol-O-methyltransferase domain containing 1)	4	0.151	65.4	72.6	inactive
17	PTPN1 (protein tyrosine phosphatase non-receptor type 1)	1	0.0023	62.8	62.9	inactive
18	PTPN1 (protein tyrosine phosphatase non-receptor type 1)	2	-0.367	121	93.5	inactive
19	PTPN1 (protein tyrosine phosphatase non-receptor type 1)	3	-0.118	93	85.7	inactive
20	PTPN1 (protein tyrosine phosphatase non-receptor type 1)	4	-0.206	60.6	52.6	inactive
21	HK1 (hexokinase 1)	1	0.759	25.8	43.7	inactive
22	HK1 (hexokinase 1)	2	0.309	27.4	33.9	inactive
23	HK1 (hexokinase 1)	3	0.00431	46.2	46.4	inactive
24	HK1 (hexokinase 1)	4	-0.0306	107	105	inactive
25	TXNDC8 (thioredoxin domain containing 8)	1	-0.234	91.8	78	inactive
26	TXNDC8 (thioredoxin domain containing 8)	2	-0.155	83.4	74.9	inactive
27	TXNDC8 (thioredoxin domain containing 8)	3	-0.142	95.1	86.1	inactive
28	TXNDC8 (thioredoxin domain containing 8)	4	-0.394	68.3	52	inactive
29	GUCY2F (guanylate cyclase 2F, retinal)	1	-0.293	55.8	45.6	inactive
30	GUCY2F (guanylate cyclase 2F, retinal)	2	-0.0357	90	87.8	inactive
31	GUCY2F (guanylate cyclase 2F, retinal)	3	0.278	88.5	107	inactive
32	GUCY2F (guanylate cyclase 2F, retinal)	4	-0.381	56.5	43.4	inactive
33	P4HA2 (prolyl 4-hydroxylase subunit alpha 2)	1	0.286	53.1	64.7	inactive
34	P4HA2 (prolyl 4-hydroxylase subunit alpha 2)	2	-0.746	27.7	16.5	inactive
35	P4HA2 (prolyl 4-hydroxylase subunit alpha 2)	3	-0.188	99.9	87.8	inactive
36	RLN3 (relaxin 3)	1	-0.766	68.3	40.1	inactive
37	RLN3 (relaxin 3)	2	0.141	73.5	81.1	inactive
38	RLN3 (relaxin 3)	3	-0.11	11.2	10.4	inactive
39	RLN3 (relaxin 3)	4	-0.0884	59.8	56.2	inactive
40	LCAT (lecithin-cholesterol acyltransferase)	1	-0.511	102	71.8	inactive
41	LCAT (lecithin-cholesterol acyltransferase)	2	-0.116	93.9	86.7	inactive
42	LCAT (lecithin-cholesterol acyltransferase)	3	-0.191	14.8	12.9	inactive
43	CD14 (CD14 molecule)	1	-0.269	94.4	78.3	inactive
44	CD14 (CD14 molecule)	2	0.272	45.3	54.7	inactive
45	CD14 (CD14 molecule)	3	-0.0998	68.6	64	inactive
46	EIF6 (eukaryotic translation initiation factor 6)	1	-0.0781	84.6	80.2	inactive
47	EIF6 (eukaryotic translation initiation factor 6)	2	0.0719	62.1	65.3	inactive
48	EIF6 (eukaryotic translation initiation factor 6)	3	-0.213	57.7	49.7	inactive
49	NCK1 (NCK adaptor protein 1)	1	0.32	32.9	41	inactive
50	NCK1 (NCK adaptor protein 1)	2	0.319	64.5	80.5	inactive
51	NCK1 (NCK adaptor protein 1)	3	-0.0122	86	85.3	inactive
52	NCK1 (NCK adaptor protein 1)	4	-0.265	98.8	82.2	inactive
53	TMPRSS7 (transmembrane serine protease 7)	1	-1.04	38.6	18.8	inactive
54	TMPRSS7 (transmembrane serine protease 7)	2	-0.0355	82.8	80.8	inactive
55	TMPRSS7 (transmembrane serine protease 7)	3	-0.0698	111	106	inactive
56	TMPRSS7 (transmembrane serine protease 7)	4	-0.305	93.6	75.7	inactive
57	TRIP6 (thyroid hormone receptor interactor 6)	1	0.0687	50.4	52.8	inactive
58	TRIP6 (thyroid hormone receptor interactor 6)	2	-0.279	56.7	46.7	inactive
59	TRIP6 (thyroid hormone receptor interactor 6)	3	-0.16	104	92.9	inactive
60	ABL2 (ABL proto-oncogene 2, non-receptor tyrosine kinase)	1	0.184	71.3	80.9	inactive
61	ABL2 (ABL proto-oncogene 2, non-receptor tyrosine kinase)	2	-0.0194	70.3	69.3	inactive
62	ABL2 (ABL proto-oncogene 2, non-receptor tyrosine kinase)	3	0.211	65.1	75.4	inactive
63	ABL2 (ABL proto-oncogene 2, non-receptor tyrosine kinase)	4	0.0535	49.7	51.6	inactive
64	PRSS50 (serine protease 50)	1	-0.284	104	85.4	inactive
65	PRSS50 (serine protease 50)	2	0.282	57	69.4	inactive
66	PRSS50 (serine protease 50)	3	-0.165	108	96.2	inactive
67	PRSS50 (serine protease 50)	4	-0.184	66.3	58.3	inactive
68	FOXN3 (forkhead box N3)	1	-0.241	122	103	inactive
69	FOXN3 (forkhead box N3)	2	-0.333	59.1	47	inactive
70	FOXN3 (forkhead box N3)	3	-0.535	98.2	67.8	inactive
71	FOXN3 (forkhead box N3)	4	-0.189	114	100	inactive
72	MFNG (MFNG O-fucosylpeptide 3-beta-N-acetylglucosaminyltransferase)	1	-0.0817	114	108	inactive
73	MFNG (MFNG O-fucosylpeptide 3-beta-N-acetylglucosaminyltransferase)	2	-0.196	86.2	75.2	inactive
74	MFNG (MFNG O-fucosylpeptide 3-beta-N-acetylglucosaminyltransferase)	3	-0.655	66.6	42.3	inactive
75	MFNG (MFNG O-fucosylpeptide 3-beta-N-acetylglucosaminyltransferase)	4	1.62	6.34	19.5	inactive
76	ITGA7 (integrin subunit alpha 7)	1	-0.479	70.3	50.5	inactive
77	ITGA7 (integrin subunit alpha 7)	2	-0.421	76.7	57.3	inactive
78	ITGA7 (integrin subunit alpha 7)	3	-0.538	80.5	55.5	inactive
79	ITGA7 (integrin subunit alpha 7)	4	0.111	73.9	79.8	inactive
80	WTAP (WT1 associated protein)	1	-0.747	20.6	12.3	inactive
81	WTAP (WT1 associated protein)	2	0.0697	57.4	60.2	inactive
82	WTAP (WT1 associated protein)	3	1.16	25	55.8	inactive
83	DIDO1 (death inducer-obliterator 1)	1	1.28	24.6	59.7	inactive
84	DIDO1 (death inducer-obliterator 1)	2	-0.11	118	110	inactive
85	DIDO1 (death inducer-obliterator 1)	3	0.244	73.4	86.9	inactive
86	DIDO1 (death inducer-obliterator 1)	4	-0.397	31.4	23.8	inactive
87	KIF18A (kinesin family member 18A)	1	-0.36	28.1	21.9	inactive
88	KIF18A (kinesin family member 18A)	2	-0.427	27.9	20.8	inactive
89	KIF18A (kinesin family member 18A)	3	-0.0537	56.5	54.5	inactive
90	KIF18A (kinesin family member 18A)	4	0.1	58.8	63	inactive
